Assay results published in PubChem BioAssay AID485314 (National Center for Advancing Translational Sciences (NCATS), 2010).
In all, about 340,000 compounds went through this assay and about 4,500 (1.3%) were called active. Inconclusive results, whose numbers are uncertain, are shown with a selection of clear calls. Calls come from the whole dose curve; as a rule, active = well fitted inhibition curve with a large enough effect; inconclusive = small, poorly fitted or top-dose-only effect, or another doubt; inactive = no such curve, though single readings can be large or run the other way. Potencies beside an inconclusive call are fits to weak or partial responses and may not hold up.
% is set by controls: 0 for no effect and ±100 for the full control effect; potency is the fitted concentration of half-maximal effect.

What follows are compounds tested against DNA polymerase beta (Homo sapiens) (UniProt P06746) (assay: qHTS Assay for Inhibitors of DNA Polymerase Beta). Conditions: Pol beta primer extension/strand displacement, fluorescence kinetic; activity change, negative = inhibition: at 114 µM (top of the series).
How it was run: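 Homogeneous kinetic assay of primer extension and strand displacement by 10 nM Pol beta, preincubated 15 min at room temperature with compound before 50 nM substrate (final) was added. Read at 0 and 10 min; four-parameter Hill fit.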
With `O=C(/C=C/c1ccccc1Cl)c1ccccc(=O)c1O` the Potency was active: 44.7 µM. In the case of `Cc1nc(-c2ccc(Cl)cc2)sc1CCNC(=O)c1ccc(C(F)(F)F)cc1`, the “activity change, negative = inhibition” value is reported as inactive: 17.7%. `O=C(Cc1ccc(S(=O)(=O)N2CCCC2)s1)N1CCN(c2ccccc2)CC1` was tested, and the Potency was active: 31.6 µM. With `COc1ccc(-n2cnnc2SCC(=O)Nc2cc(C)on2)cc1` the Potency was inconclusive: 89.1 µM [inhibitor, single point]. For `CCOC(=O)c1sc(=S)n(-c2ccccc2)c1N(C(C)=O)C(C)=O`, the Potency was inconclusive: 44.7 µM [inhibitor, partial curve, poor fit]. For `COc1ccc(/C=N\NC(=O)c2sc(N)nc2C)cc1OC`, the Potency was active: 17.8 µM. `CC(C)=C1C(=O)NN(c2ccc(C)c(Cl)c2)C1=O` was tested, and the Potency was inconclusive: 56.2 µM [inhibitor, single point]. For `O=C(NCc1ccc(-c2nc3ccccc3s2)cc1)c1ccco1`, the “activity change, negative = inhibition” value was inactive: 3.9%. With `O=C(NCCc1c[nH]c2ccccc12)c1cc2ccccc2oc1=O` the Potency was inconclusive: 70.8 µM [inhibitor, partial curve, poor fit]. In the case of `COc1ccc2nc(-c3ccc(N)cc3)[nH]c2c1`, the Potency is reported as inconclusive: 20 µM [inhibitor, single point]. With `O=C(O)c1ccc(-n2c(-c3cc(-c4ccco4)[nH]n3)n[nH]c2=S)cc1` the Potency was inconclusive: 15.8 µM [inhibitor, full curve, poor fit]. With `Cc1cccc(-n2c(=O)c3c(c4cc(C)ccc4n3C)n(CC(=O)NCCC3=CCCCC3)c2=O)c1` the Potency was inconclusive: 3.98 µM [inhibitor, single point]. `Cc1ccc(C(=O)O)cc1-c1ccc(C=C2C(=O)c3ccccc3C2=O)o1` was tested, and the Potency was active: 31.6 µM. In the case of `CCOC(=O)CSc1nc2ccccc2c(=O)n1CCc1ccc(OC)c(OC)c1`, the Potency is reported as inconclusive: 14.1 µM [inhibitor, full curve, poor fit]. With `Cc1cc(-n2c(SCC(=O)NCc3cccs3)nc3n[nH]c(C)c3c2=N)ccc1Cl` the Potency was inconclusive: 11.2 µM [inhibitor, partial curve, poor fit]. `CC(CNC(=O)Cn1ccc2cc(S(=O)(=O)N3CCCCCC3)ccc21)c1ccccc1` (stereo not given) was tested, and the Potency was inconclusive: 3.98 µM [inhibitor, single point]. For `CCOc1ccccc1-n1c(SCC(=O)NCc2ccco2)nnc1-c1ccncc1`, the Potency was inconclusive: 17.8 µM [inhibitor, full curve, poor fit]. `CCOc1ccc(NC(=S)N(CCCN2CCCC2)Cc2cccn2Cc2ccc(Cl)cc2)cc1` was tested, and the Potency was inconclusive: 3.16 µM [inhibitor, partial curve, poor fit]. For `O=C(Nc1ccccc1)c1cccc(S(=O)(=O)Nc2cccc(F)c2)c1`, the “activity change, negative = inhibition” value was inactive: -24.7%. `Cc1nc2c(C(=O)NCCc3ccccc3)c[nH]n2c(=O)c1Cl` was tested, and the “activity change, negative = inhibition” value was inactive: 33.6%. With `COc1cc(C)c(S(=O)(=O)Nc2ccccc2F)cc1C` the Potency was inconclusive: 89.1 µM [inhibitor, single point]. `Cc1onc(-c2ccc(F)cc2F)c1C(=O)Nc1cccc(C(F)(F)F)c1` was tested, and the Potency was inconclusive: 0.562 µM [inhibitor, full curve, poor fit]. In the case of `CCOC(=O)N1CCC(N2Cc3cccc(C(=O)NCc4ccc5c(c4)OCO5)c3C2=O)CC1`, the Potency is reported as active: 25.1 µM. For `COc1cccc(NC(=S)NCc2ccccc2)c1`, the Potency was inconclusive: 0.316 µM [inhibitor, full curve, poor fit]. In the case of `CCNc1ccc(C(=O)OCC(=O)N(Cc2ccccc2)C(C)(C)C)cc1[N+](=O)[O-]`, the Potency is reported as inconclusive: 89.1 µM [inhibitor, single point]. With `Cc1ccc(C)c(CSC2=NN3CCCC(=O)N=C3S2)c1` the activity change, negative = inhibition was inconclusive: -43.6% [inhibitor]. With `COc1ccc(CCNC(=O)c2c(C)nn(-c3ccc(F)cc3)c2-n2cccc2)cc1OC` the “activity change, negative = inhibition” value was inactive: -3.17%. With `Cn1cc(S(=O)(=O)N2CCCCCC2)cc1C(=O)NCc1ccccc1Cl` the “activity change, negative = inhibition” value was inactive: -0.476%. For `O=C(Nc1ccc(-c2nc3ncccc3o2)cc1)c1ccco1`, the Potency was active: 35.5 µM. With `Cc1cc(C)c2c(c1)/C(=c1/sc3n(c1=O)CN(c1ccccc1)CN=3)C(=O)N2` the activity change, negative = inhibition was inconclusive: -34.6% [inhibitor]. For `O=C(N/N=C/c1cccc(O)c1)c1cc(-c2ccc3c(c2)OCO3)n[nH]1`, the Potency was inconclusive: 14.1 µM [inhibitor, full curve]. `CC(/C=C/c1ccc2c(c1)OCO2)=N/NC(=O)C1COc2ccccc2O1` (stereo not given) was tested, and the Potency was inconclusive: 0.794 µM [inhibitor, full curve, poor fit]. In the case of `COc1ccc(C(NC(=O)/C=C/c2ccco2)c2ccc(OC)c(OC)c2)cc1` (stereo not given), the Potency is reported as inconclusive: 39.8 µM [inhibitor, single point]. For `C#CCOCCOCCOCCNc1nc(N2CCN(C(=O)[C@H](Cc3cc4ccccc4[nH]3)n3cc([C@@H](N)CC(C)C)nn3)CC2)nc(N2CCN(C(=O)[C@H](Cc3cc4ccccc4[nH]3)n3cc([C@@H](N)CC(C)C)nn3)CC2)n1`, the Potency was active: 28.2 µM. In the case of `Cc1cc(C)n(Cc2ccccc2F)c(=O)c1C#N`, the Potency is reported as inconclusive: 89.1 µM [inhibitor, single point]. With `COc1ccc(Br)cc1CNC(=O)CN1C(=O)C(c2ccccc2)Oc2cccnc21` (stereo not given) the activity change, negative = inhibition was inconclusive: -75.1% [inhibitor]. For `CSc1nsc(/C=C/Nc2ccc(F)cc2)c1C#N`, the “activity change, negative = inhibition” value was inactive: -1.45%. `COCCN(CC1CCCN(C2Cc3ccccc3C2)C1)C(=O)CCC(N)=O` (stereo not given) was tested, and the Potency was inconclusive: 39.8 µM [inhibitor, partial curve, poor fit]. For `CC(C)CNc1nc(Oc2ccc(OCC(N)=O)nn2)nc(N2CCOCC2)n1`, the “activity change, negative = inhibition” value was inactive: 8.7%. For `CS(=O)(=O)C1=NN2C(=N)/C(=C\c3ccc(OCCOc4ccccc4)cc3)C(=O)N=C2S1`, the Potency was inconclusive: 56.2 µM [inhibitor, partial curve, poor fit]. In the case of `O=C(CCS(=O)(=O)c1cccc2nsnc12)N1CCN(Cc2ccc3c(c2)OCO3)CC1`, the Potency is reported as inconclusive: 35.5 µM [inhibitor, single point]. With `Nc1nc2ccccc2n1CCOc1ccc(Br)cc1` the “activity change, negative = inhibition” value was inactive: 18.2%. `Cc1ccccc1OCCC(=O)Nc1ccc2c(C)cc(=O)oc2c1` was tested, and the Potency was inconclusive: 50.1 µM [inhibitor, single point]. `O=C(Nc1nc2nccc(-c3ccccc3)n2n1)c1ccc(F)cc1` was tested, and the “activity change, negative = inhibition” value was inactive: 30.7%. `COc1ccc(-c2nc3c4ccccc4[nH]c(=O)n3n2)cc1` was tested, and the Potency was inconclusive: 8.91 µM [inhibitor, full curve, poor fit]. `CC(N)(Cc1ccc(O)c(O)c1)C(=O)O` (stereo not given) was tested, and the Potency was active: 5.62 µM. With `Cc1cccc2c1cnn2C(=O)CCC(=O)NCC(C)c1ccccc1` (stereo not given) the Potency was inconclusive: 89.1 µM [inhibitor, single point]. With `O=C1OC(/C=C/c2ccccc2)=NC/1=C/C=C/c1ccccc1` the “activity change, negative = inhibition” value was inactive: 14.7%. `O=C(O)c1cccc(N2CCCCS2(=O)=O)c1` was tested, and the Potency was inconclusive: 79.4 µM [inhibitor, single point]. In the case of `CCN(c1ccccc1)c1nnc(NC(=O)Nc2cccc(Cl)c2C)s1`, the “activity change, negative = inhibition” value is reported as inactive: -9.22%. For `Cc1ccc(NC(=O)c2cc(-c3ccc(C)o3)nc3ccccc23)cc1`, the Potency was inconclusive: 28.2 µM [inhibitor, full curve]. With `CCc1[nH]c(=O)[nH]c1C(C)S(=O)(=O)c1ccc(C)cc1` (stereo not given) the “activity change, negative = inhibition” value was inactive: 0.868%. With `Cc1oc(-c2cccc3ccccc23)nc1CN1CCN(c2ncnc3ccccc23)CC1` the Potency was inconclusive: 25.1 µM [inhibitor, partial curve, poor fit]. For `CCOC(=O)c1c(-c2ccccc2)csc1NC(=O)c1nc(S(=O)(=O)CC)ncc1Cl`, the “activity change, negative = inhibition” value was inactive: 7.97%. In the case of `Cc1nc2c(C(=O)NCCc3ccccc3)cnn2c(C)c1Cc1c(F)cccc1Cl`, the “activity change, negative = inhibition” value is reported as inactive: -24.6%. `O=C(O)c1cc(-c2ccc(/C=C3\NC(=O)N(c4ccc(Cl)cc4)C3=O)o2)ccc1Cl` was tested, and the Potency was active: 6.31 µM. `COc1ccc(/C=C2\Sc3ccc(C(=O)NC4CC4)cc3N(C)C2=O)cc1OC` was tested, and the activity change, negative = inhibition was inconclusive: -39.4% [inhibitor]. `COC(=O)N/N=C\c1ccc(-c2cc(Cl)c(Cl)cc2Cl)o1` was tested, and the Potency was inconclusive: 20 µM [inhibitor, single point]. `COc1ccc(S(N)(=O)=O)cc1C(=O)NC1CCCc2ccccc21` (stereo not given) was tested, and the Potency was inconclusive: 39.8 µM [inhibitor, single point]. With `COc1ccc(OC)c(N(CC(=O)NN=C2CCN(C)CC2)S(=O)(=O)c2ccccc2)c1` the “activity change, negative = inhibition” value was inactive: 7.69%. For `O=C1CSC(=S)N1/N=C/c1ccc2c(c1)OCCO2`, the “activity change, negative = inhibition” value was inactive: -6.61%. For `CCCCOc1ccc(Nc2cc(Cl)ccc2C(=O)O)cn1`, the Potency was active: 39.8 µM. `N#Cc1c(-c2ccccc2)ccn(Cc2ccc(Cl)cc2)c1=O` was tested, and the Potency was inconclusive: 89.1 µM [inhibitor, single point]. `N#Cc1ccccc1CN1C(=O)S/C(=C/c2cccn2-c2cccc(C(=O)O)c2)C1=O` was tested, and the Potency was active: 11.2 µM. `COc1cc(/C=C2\S/C(=N/S(=O)(=O)c3ccccc3)NC2=O)c([N+](=O)[O-])cc1OC` was tested, and the “activity change, negative = inhibition” value was inactive: 20.6%. With `Cc1c(-c2ccccc2)nc(-c2ccccc2)[nH]c1=O` the Potency was inconclusive: 17.8 µM [inhibitor, partial curve]. With `COc1ccc(OC)c(NC(=O)CN2C(=O)c3ccccc3Sc3ccc(C(=O)N4CCCC4)cc32)c1` the Potency was inconclusive: 39.8 µM [inhibitor, single point]. In the case of `CCCN(CCC)CCNC(=O)c1cn(C)c(=O)c2c1c1ccccc1n2C`, the Potency is reported as inconclusive: 3.16 µM [inhibitor, single point]. In the case of `O=C(N/N=C/c1cccnc1)c1cc(-c2ccccc2OCc2ccccc2)n[nH]1`, the Potency is reported as active: 79.4 µM. `Cc1ccc2c(c1)c1c(c(=O)n(-c3ccccc3C)c(=O)n1CC(=O)NCc1ccccc1)n2C` was tested, and the Potency was inconclusive: 89.1 µM [inhibitor, single point].
